# PubChem BioAssay AID686937 – Drosophila RNAi Screening Center – 2013
# Screen: 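Genes in the fly needed for secretion of protein constitutively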 (primary screen)
# Cells: Drosophila S2 cells expressing secreted horseradish peroxidase
# Reagent: long dsRNA against Drosophila genes
# Duration: about 5.5 days (5 days dsRNA, then 12 h reporter induction)
# Challenge: reporter expression induced after 5 days of dsRNA, read 12 h later; inducer not stated
# Measurement: 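Chemiluminescent measurement of peroxidase in the medium 12 h after reporter induction, following 5 days of dsRNA, given as a z-score per plate; higher means more secretion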
# Reading the numbers: z-score: higher = more reporter secreted into medium
# In all, the deposit lists about 23,000 reagents; this is an unselected part of those with a known target gene and a result. 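Reduced-secretion tags in replicate 1 do not always agree with the z-scores; no criterion for assigning the tags was given.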 No sequences are given here. Not given: the amount of reagent.
gene knocked down,dsRNA,"z-score, replicate 1","z-score, replicate 2","z-score, replicate 3","z-score, replicate 4","phenotype, replicate 1"
KCNQ,DRSC06121,0.07,0.21,,,
KCNQ,DRSC06230,0.12,0.23,,,
CG7611,DRSC11840,0.34,0.48,0.71,0.93,
CG30355,DRSC21958,0.22,0.74,,,
Btnd,DRSC18316,0.36,0.22,,,
zf30C,DRSC03641,0.1,0.37,,,
CG43707,DRSC00280,0.02,0.18,,,
CG43707,DRSC22869,0.31,0.5,,,
CG43707,DRSC22912,0.93,-0.06,,,
mRpL1,DRSC16251,-2.25,-0.44,,,
CG17026,DRSC10237,0.39,0.18,-0.94,-0.5,
CG4462,DRSC15583,0.19,0.37,,,
CG31869,DRSC02582,-0.06,0.01,,,
CG31869,DRSC02674,-0.03,0.37,,,
CG34249 (retired record),DRSC09431,-0.94,-0.57,,,
Pbp95,DRSC15448,0.24,0.43,,,
CG13919,DRSC08388,-0.55,0.06,,,
Synj,DRSC04526,0.28,0.38,,,
Gba1a,DRSC21494,0.55,-0.46,,,
CG42854,DRSC19173,-0.81,-0.2,,,
CG10984,DRSC09817,-0.04,0.15,,,
CG10979,DRSC12153,0.31,0.31,,,
Ccp84Af,DRSC12591,0.28,-0.39,,,
veg (retired record),DRSC07714,0.09,0.32,,,
CG34126,DRSC02726,0.16,0.42,,,
CG34126,DRSC22079,0.14,0.06,,,
CG12112,DRSC17809,0.14,0.48,,,
CG31562 (retired record),DRSC12273,0.32,0.45,,,
CG31562 (retired record),DRSC12274,0.32,0.11,,,
RpS3,DRSC16838,-2.22,-2.73,,,reduced secretion
PPO1,DRSC05929,0.45,0.44,,,
gek,DRSC04688,0.28,0,,,
PolI,DRSC16267,0.33,0.41,,,

A stretch taken from the entries so far:
gene knocked down,dsRNA,"z-score, replicate 1","z-score, replicate 2","z-score, replicate 3","z-score, replicate 4","phenotype, replicate 1"
RpS3,DRSC16838,-2.22,-2.73,,,reduced secretion
PPO1,DRSC05929,0.45,0.44,,,
gek,DRSC04688,0.28,0,,,
PolI,DRSC16267,0.33,0.41,,,
